# This is one part of the list.
# Amino acid sequences for entries named in this document (tags omitted). A change or cut given only in a name is not applied to a line headed by its entry.
# UniProt Q9H1A4, whole entry, looked up: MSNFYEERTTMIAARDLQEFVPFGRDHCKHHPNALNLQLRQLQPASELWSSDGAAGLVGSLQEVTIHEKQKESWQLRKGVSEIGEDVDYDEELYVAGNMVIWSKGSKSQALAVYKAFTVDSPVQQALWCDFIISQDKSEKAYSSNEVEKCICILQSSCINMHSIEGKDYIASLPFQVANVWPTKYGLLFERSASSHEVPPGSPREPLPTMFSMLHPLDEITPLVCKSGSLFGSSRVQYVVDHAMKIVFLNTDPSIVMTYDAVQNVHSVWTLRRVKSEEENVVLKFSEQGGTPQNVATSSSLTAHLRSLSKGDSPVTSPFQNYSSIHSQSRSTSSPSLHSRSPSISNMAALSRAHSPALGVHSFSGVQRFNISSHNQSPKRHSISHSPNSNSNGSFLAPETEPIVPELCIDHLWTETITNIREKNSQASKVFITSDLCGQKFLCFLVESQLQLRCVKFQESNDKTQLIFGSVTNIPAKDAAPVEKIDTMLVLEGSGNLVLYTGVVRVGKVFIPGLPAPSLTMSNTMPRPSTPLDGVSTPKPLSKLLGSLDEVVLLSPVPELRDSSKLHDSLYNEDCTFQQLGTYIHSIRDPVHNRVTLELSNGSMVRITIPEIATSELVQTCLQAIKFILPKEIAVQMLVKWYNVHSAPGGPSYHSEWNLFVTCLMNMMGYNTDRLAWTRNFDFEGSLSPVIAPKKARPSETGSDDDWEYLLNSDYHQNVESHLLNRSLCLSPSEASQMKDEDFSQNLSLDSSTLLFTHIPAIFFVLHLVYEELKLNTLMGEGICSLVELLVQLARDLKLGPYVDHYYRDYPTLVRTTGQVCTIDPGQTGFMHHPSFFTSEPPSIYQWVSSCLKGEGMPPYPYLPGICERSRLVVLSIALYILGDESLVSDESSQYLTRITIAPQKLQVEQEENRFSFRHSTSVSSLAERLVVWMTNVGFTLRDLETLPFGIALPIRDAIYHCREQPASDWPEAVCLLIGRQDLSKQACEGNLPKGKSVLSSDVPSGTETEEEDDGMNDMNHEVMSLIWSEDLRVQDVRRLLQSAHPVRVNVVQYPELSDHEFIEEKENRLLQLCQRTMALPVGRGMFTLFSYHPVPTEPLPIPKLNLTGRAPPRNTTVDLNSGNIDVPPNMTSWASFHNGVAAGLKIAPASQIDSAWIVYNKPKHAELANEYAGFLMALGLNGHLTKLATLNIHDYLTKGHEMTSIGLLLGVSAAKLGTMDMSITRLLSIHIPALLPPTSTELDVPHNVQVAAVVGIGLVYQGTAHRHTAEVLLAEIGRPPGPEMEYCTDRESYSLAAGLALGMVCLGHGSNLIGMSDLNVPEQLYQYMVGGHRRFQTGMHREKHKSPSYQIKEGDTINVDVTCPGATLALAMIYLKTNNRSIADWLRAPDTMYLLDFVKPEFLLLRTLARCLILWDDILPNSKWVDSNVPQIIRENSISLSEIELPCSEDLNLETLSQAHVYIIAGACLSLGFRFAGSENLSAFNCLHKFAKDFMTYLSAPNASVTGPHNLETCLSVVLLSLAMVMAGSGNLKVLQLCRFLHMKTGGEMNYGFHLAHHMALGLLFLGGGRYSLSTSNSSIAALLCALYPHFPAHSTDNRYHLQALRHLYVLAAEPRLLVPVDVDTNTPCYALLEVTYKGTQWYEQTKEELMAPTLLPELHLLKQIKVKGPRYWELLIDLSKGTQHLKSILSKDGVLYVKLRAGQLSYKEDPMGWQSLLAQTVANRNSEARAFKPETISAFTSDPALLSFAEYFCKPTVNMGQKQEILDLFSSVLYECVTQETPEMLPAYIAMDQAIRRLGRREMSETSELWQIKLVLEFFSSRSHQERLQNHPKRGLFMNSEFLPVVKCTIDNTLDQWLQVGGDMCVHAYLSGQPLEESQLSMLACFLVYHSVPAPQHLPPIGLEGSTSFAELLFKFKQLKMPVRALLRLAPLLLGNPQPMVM
# UniProt Q9BRR6: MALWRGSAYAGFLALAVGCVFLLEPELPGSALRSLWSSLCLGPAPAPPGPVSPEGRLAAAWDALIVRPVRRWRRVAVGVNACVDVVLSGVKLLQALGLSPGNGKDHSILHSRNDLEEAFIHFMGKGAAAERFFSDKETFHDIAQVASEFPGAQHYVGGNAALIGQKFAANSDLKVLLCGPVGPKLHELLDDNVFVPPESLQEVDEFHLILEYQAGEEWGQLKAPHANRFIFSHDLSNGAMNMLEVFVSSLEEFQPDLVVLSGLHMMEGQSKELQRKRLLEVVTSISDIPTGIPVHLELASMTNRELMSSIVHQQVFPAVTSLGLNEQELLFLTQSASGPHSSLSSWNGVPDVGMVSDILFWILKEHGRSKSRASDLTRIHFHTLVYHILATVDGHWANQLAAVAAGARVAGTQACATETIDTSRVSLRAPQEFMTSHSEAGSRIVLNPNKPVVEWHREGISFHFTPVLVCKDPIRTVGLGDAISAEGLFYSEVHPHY
# UniProt Q01432: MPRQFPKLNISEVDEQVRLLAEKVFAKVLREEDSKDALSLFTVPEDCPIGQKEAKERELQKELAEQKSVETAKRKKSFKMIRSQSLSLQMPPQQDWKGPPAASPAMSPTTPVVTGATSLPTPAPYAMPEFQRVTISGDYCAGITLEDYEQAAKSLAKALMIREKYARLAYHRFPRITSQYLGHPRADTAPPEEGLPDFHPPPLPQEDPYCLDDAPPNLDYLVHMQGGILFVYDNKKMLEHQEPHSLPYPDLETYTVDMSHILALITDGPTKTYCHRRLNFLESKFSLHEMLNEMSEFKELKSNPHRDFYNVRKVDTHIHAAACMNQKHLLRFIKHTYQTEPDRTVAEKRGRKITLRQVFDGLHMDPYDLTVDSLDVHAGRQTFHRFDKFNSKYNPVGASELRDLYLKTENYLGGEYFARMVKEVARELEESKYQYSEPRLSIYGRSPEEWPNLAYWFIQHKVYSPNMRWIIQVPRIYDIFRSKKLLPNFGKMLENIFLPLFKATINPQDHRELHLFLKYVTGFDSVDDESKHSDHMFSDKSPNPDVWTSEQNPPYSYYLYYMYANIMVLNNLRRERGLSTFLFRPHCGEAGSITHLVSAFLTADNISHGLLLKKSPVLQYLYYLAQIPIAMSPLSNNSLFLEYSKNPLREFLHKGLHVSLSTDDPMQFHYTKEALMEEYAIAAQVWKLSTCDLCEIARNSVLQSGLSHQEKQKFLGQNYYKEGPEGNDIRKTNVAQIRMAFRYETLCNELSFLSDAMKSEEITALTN
# UniProt Q9BV57: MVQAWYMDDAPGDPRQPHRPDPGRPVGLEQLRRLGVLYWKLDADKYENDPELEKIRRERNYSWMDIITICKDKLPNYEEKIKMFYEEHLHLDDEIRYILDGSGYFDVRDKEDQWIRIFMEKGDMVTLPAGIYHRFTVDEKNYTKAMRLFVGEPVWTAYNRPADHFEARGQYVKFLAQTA
# UniProt P00352: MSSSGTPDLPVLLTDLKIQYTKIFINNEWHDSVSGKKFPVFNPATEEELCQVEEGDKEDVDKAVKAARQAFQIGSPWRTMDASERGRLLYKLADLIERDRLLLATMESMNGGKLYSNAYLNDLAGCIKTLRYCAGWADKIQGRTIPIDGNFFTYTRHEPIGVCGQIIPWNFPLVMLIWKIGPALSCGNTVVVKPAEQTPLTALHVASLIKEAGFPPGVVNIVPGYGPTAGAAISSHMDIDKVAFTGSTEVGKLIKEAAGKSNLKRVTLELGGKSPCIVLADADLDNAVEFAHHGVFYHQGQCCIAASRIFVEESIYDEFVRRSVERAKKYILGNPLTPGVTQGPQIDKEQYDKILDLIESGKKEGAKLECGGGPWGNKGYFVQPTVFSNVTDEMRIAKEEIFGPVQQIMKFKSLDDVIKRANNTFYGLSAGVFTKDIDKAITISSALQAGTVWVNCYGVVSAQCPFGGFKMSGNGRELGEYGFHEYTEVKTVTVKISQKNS
# UniProt Q9UKV8, whole entry, looked up: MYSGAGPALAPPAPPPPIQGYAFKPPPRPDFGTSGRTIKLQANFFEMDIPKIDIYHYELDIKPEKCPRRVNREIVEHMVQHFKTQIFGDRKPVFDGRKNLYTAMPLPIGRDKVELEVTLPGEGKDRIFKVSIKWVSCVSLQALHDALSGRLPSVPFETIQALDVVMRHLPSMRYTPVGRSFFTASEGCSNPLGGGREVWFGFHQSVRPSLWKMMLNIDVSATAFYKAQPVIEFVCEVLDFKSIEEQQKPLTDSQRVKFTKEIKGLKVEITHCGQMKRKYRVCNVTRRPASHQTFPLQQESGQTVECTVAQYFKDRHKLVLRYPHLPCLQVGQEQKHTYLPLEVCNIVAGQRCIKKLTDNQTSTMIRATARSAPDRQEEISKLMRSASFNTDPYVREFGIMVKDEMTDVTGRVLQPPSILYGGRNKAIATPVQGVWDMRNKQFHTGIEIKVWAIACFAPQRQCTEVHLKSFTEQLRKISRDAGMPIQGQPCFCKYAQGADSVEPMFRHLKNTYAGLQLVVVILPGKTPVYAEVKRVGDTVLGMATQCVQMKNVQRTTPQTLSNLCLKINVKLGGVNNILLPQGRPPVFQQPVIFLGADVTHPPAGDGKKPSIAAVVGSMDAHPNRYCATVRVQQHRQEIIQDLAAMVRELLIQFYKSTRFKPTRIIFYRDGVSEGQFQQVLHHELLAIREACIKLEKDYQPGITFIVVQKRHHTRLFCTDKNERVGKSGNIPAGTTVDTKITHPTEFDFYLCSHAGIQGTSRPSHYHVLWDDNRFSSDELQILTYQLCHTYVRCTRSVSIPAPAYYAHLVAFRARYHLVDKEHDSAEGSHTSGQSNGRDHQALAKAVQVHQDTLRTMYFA
# UniProt Q9Y303: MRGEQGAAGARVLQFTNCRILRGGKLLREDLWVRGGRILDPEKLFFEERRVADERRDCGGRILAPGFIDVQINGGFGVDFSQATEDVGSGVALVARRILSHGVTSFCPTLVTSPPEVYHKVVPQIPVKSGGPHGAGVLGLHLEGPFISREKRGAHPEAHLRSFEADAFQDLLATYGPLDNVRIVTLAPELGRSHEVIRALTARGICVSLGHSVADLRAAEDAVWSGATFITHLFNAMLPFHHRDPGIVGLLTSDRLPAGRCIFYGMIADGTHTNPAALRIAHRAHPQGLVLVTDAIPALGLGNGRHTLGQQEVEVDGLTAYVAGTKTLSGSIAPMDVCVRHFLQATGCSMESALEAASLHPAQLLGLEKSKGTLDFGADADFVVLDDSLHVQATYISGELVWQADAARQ
# UniProt Q96A54: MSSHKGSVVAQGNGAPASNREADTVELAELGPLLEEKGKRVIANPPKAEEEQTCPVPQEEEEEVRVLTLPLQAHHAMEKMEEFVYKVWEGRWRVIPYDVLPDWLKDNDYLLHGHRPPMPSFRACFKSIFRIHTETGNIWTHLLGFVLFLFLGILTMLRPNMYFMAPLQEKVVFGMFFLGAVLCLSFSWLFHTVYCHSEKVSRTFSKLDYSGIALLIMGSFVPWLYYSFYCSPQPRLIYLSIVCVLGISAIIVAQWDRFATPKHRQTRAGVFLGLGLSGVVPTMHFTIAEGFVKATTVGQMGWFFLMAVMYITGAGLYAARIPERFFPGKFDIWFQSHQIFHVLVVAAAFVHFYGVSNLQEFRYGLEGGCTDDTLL
# UniProt P13716: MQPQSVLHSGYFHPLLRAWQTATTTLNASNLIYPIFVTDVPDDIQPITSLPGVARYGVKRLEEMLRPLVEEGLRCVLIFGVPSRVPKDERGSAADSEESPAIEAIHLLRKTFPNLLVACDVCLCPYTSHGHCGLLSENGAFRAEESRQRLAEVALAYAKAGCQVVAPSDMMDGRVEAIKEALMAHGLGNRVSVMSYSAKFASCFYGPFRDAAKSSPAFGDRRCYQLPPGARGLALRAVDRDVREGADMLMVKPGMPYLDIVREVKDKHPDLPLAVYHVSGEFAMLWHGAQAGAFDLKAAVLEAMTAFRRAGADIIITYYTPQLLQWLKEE
# UniProt Q9NRZ5: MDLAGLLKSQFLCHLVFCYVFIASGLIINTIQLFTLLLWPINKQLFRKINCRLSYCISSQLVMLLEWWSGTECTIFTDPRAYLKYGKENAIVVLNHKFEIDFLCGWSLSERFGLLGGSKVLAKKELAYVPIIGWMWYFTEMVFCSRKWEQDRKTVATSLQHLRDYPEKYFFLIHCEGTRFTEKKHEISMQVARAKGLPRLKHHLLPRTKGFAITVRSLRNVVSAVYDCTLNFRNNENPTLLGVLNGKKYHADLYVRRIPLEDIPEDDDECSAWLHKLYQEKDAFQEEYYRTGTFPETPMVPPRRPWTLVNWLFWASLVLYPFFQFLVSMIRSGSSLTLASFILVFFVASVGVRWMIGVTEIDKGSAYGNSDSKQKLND
# Tests used:
# Assay in all cases: log2 fold change, soluble protein after heating vs DMSO (PISA); higher = thermal stabilisation; K562 cells, 10 uM, 30 min; active = over 0.2 and 3.5 SD of the protein, either way, in both replicates (recomputed)
# [1] = compound: NC(=O)Nc1cc(-c2cccc(F)c2)sc1C(=O)N[C@H]1CCCNC1
# Procedure, shortened: (§1)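 K562 cells at 2×10^6 cells/mL were treated for 30 min with 10 μM compound, and aliquots were heated for 3 min over 48°C-58°C before pooling. Extraction used PBS with 0.5% NP-40 at 4°C, and soluble protein was the supernatant after 21,000xg for 90 min, measured by TMTpro 16plex LC-MS/MS with channel sums equalised. Thermal stability values, relative to control samples and from duplicates, are log2 fold changes.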
# [2] = compound: NC(=O)c1cnc(N[C@@H]2CCCC[C@@H]2N)nc1Nc1cccc(-n2nccn2)c1
# Procedure, shortened: as §1
# [3] = compound: NC1(c2ccc(-c3nc4ccn5c(=O)[nH]nc5c4cc3-c3ccccc3)cc2)CCC1
# Procedure, shortened: as §1
# [4] = compound: NCC(=O)Nc1ccc(-n2nc(C(F)(F)F)cc2-c2ccc3c(ccc4ccccc43)c2)cc1
# Procedure, shortened: as §1
# entinostat = compound: Nc1ccccc1NC(=O)c1ccc(CNC(=O)OCc2cccnc2)cc1 [entinostat]
# Procedure, shortened: as §1
# vorinostat = compound: O=C(CCCCCCC(=O)Nc1ccccc1)NO [vorinostat]
# Procedure, shortened: as §1
# citarinostat = compound: O=C(CCCCCCNC(=O)c1cnc(N(c2ccccc2)c2ccccc2Cl)nc1)NO [citarinostat]
# Procedure, shortened: as §1
# silmitasertib = compound: O=C(O)c1ccc2c(c1)nc(Nc1cccc(Cl)c1)c1ccncc12 [silmitasertib]
# Procedure, shortened: as §1
# [5] = compound: O=C1NC(=O)C(c2cnc3ccccn23)=C1c1cn2c3c(cc(F)cc13)CN(C(=O)N1CCCCC1)CC2
# Procedure, shortened: as §1
# [6] = compound: c1cc(OCCN2CCCCC2)cc(-c2n[nH]c3ccc(-c4nnc[nH]4)cc23)c1
# Procedure, shortened: as §1
# entospletinib = compound: c1cn2cc(-c3ccc4cn[nH]c4c3)nc(Nc3ccc(N4CCOCC4)cc3)c2n1 [entospletinib]
# Procedure, shortened: as §1
Target,log2 fold change [1],log2 fold change [2],log2 fold change [3],log2 fold change [4],log2 fold change (entinostat),log2 fold change (vorinostat),log2 fold change (citarinostat),log2 fold change (silmitasertib),log2 fold change [5],log2 fold change [6],log2 fold change (entospletinib)
ANAPC1 (UniProt Q9H1A4),inactive: -0.001,inactive: -0.032,inactive: -0.07,inactive: -0.009,inactive: -0.006,inactive: 0.003,inactive: 0.009,inactive: 0.042,inactive: 0.03,inactive: -0.053,inactive: 0.005
AKT1S1 isoform 3 (UniProt Q96B36),inactive: 0.036,inactive: -0.047,inactive: 0.127,inactive: -0.006,inactive: -0.051,inactive: -0.03,inactive: -0.027,inactive: -0.048,inactive: 0.038,inactive: -0.014,inactive: 0.026
ALYREF (UniProt Q86V81),inactive: 0.003,inactive: 0.088,inactive: 0.317,inactive: 0.147,inactive: -0.096,inactive: -0.034,inactive: -0.125,inactive: 0.156,inactive: 0.271,inactive: -0.09,inactive: 0.09
ADPGK (UniProt Q9BRR6),inactive: -0.103,inactive: -0.025,inactive: -0.027,inactive: -0.023,inactive: -0.025,inactive: 0.003,inactive: 0.017,inactive: 0.04,inactive: -0.062,inactive: -0.078,inactive: 0.038
AMPD3 isoform 4 (UniProt Q01432),inactive: 0.001,inactive: -0.039,inactive: -0.125,inactive: -0.001,inactive: -0.006,inactive: 0.035,inactive: 0,inactive: 0.011,inactive: -0.044,inactive: -0.026,inactive: 0.032
ADI1 (UniProt Q9BV57),inactive: -0.009,inactive: -0.163,inactive: -0.177,inactive: -0.171,inactive: -0.03,inactive: -0.129,inactive: 0.065,inactive: 0.036,inactive: -0.056,inactive: -0.02,inactive: -0.064
AKR7A2 (UniProt O43488),inactive: 0.004,inactive: 0.084,inactive: -0.017,inactive: 0.069,inactive: 0.001,inactive: 0.015,inactive: 0.044,inactive: -0.078,inactive: -0.065,inactive: 0.011,inactive: -0.017
ADGRE2 (UniProt Q9UHX3),inactive: -0.02,inactive: 0.034,inactive: -0.089,inactive: 0.011,inactive: -0.035,inactive: -0.032,inactive: -0.112,inactive: 0.081,inactive: -0.037,inactive: -0.132,inactive: 0.023
AGL (UniProt P35573),inactive: -0.063,inactive: -0.07,inactive: 0.085,inactive: 0.003,inactive: 0.04,inactive: -0.038,inactive: -0.05,inactive: 0.04,inactive: 0.034,inactive: -0.144,inactive: 0.303
ALDOA isoform 2 (UniProt P04075),inactive: 0.081,inactive: 0.009,inactive: 0.049,inactive: 0.052,inactive: 0.002,inactive: -0.028,inactive: 0.022,inactive: -0.041,inactive: -0.024,inactive: 0.013,inactive: -0.03
ALKBH2 (UniProt Q6NS38),inactive: -0.037,inactive: 0.087,inactive: 0.293,inactive: 0.04,inactive: -0.166,inactive: 0.184,inactive: -0.17,inactive: -0.005,inactive: 0.106,inactive: -0.029,inactive: 0.077
AGFG1 isoform 4 (UniProt P52594),inactive: 0.01,inactive: 0.025,inactive: -0.011,inactive: 0.049,inactive: 0.007,inactive: 0.031,inactive: 0.117,inactive: 0.004,inactive: 0.131,inactive: -0.01,inactive: -0.057
ALDH1A1 (UniProt P00352),inactive: 0.008,inactive: 0.021,inactive: -0.025,inactive: 0.047,inactive: -0.034,inactive: 0.085,inactive: 0.02,inactive: -0.025,inactive: -0.088,inactive: -0.041,inactive: 0.065
AKAP1 (UniProt Q92667),inactive: -0.063,inactive: -0.05,inactive: 0.017,inactive: 0.003,inactive: 0.014,inactive: 0.024,inactive: -0.019,inactive: 0.069,inactive: 0.118,inactive: -0.025,inactive: -0.01
AIF1 (UniProt P55008),inactive: 0.04,inactive: 0.004,–,inactive: 0.021,inactive: -0.105,–,–,–,inactive: 0.068,–,–
AGO2 (UniProt Q9UKV8),inactive: -0.008,inactive: 0.07,inactive: 0.096,inactive: 0.022,inactive: -0.072,inactive: 0.014,inactive: 0.012,inactive: 0.034,inactive: 0.074,inactive: -0.132,inactive: 0.008
AKAP11 (UniProt Q9UKA4),inactive: 0.047,–,–,–,inactive: -0.03,inactive: -0.071,inactive: -0.222,–,–,inactive: 0.074,inactive: 0.166
ALDOB (UniProt P05062),inactive: 0.011,–,–,–,inactive: 0.335,–,–,–,inactive: -0.073,–,–

# 2 entries from above, with bars between the fields.
Target | log2 fold change [1] | log2 fold change [2] | log2 fold change [3] | log2 fold change [4] | log2 fold change (entinostat) | log2 fold change (vorinostat) | log2 fold change (citarinostat) | log2 fold change (silmitasertib) | log2 fold change [5] | log2 fold change [6] | log2 fold change (entospletinib)
AKAP1 (UniProt Q92667) | inactive: -0.063 | inactive: -0.05 | inactive: 0.017 | inactive: 0.003 | inactive: 0.014 | inactive: 0.024 | inactive: -0.019 | inactive: 0.069 | inactive: 0.118 | inactive: -0.025 | inactive: -0.01
AIF1 (UniProt P55008) | inactive: 0.04 | inactive: 0.004 | – | inactive: 0.021 | inactive: -0.105 | – | – | – | inactive: 0.068 | – | –

# More results follow.

Target,log2 fold change [1],log2 fold change [2],log2 fold change [3],log2 fold change [4],log2 fold change (entinostat),log2 fold change (vorinostat),log2 fold change (citarinostat),log2 fold change (silmitasertib),log2 fold change [5],log2 fold change [6],log2 fold change (entospletinib)
AKTIP isoform 2 (UniProt Q9H8T0),inactive: -0.07,–,inactive: -0.197,–,inactive: -0.011,–,inactive: 0.035,inactive: 0.094,inactive: -0.054,inactive: 0.059,inactive: -0.207
AMDHD2 (UniProt Q9Y303),inactive: 0.046,–,–,inactive: 0.131,inactive: -0.033,inactive: 0.046,inactive: -0.164,–,–,inactive: 0.344,inactive: 0.079
ALOX12B (UniProt O75342),inactive: -0.043,inactive: 0.177,inactive: 0.036,inactive: -0.318,inactive: -0.065,–,inactive: 0,inactive: 0.014,–,inactive: 0.13,inactive: 0.015
ALG12 (UniProt Q9BV10),inactive: 0.026,inactive: -0.12,inactive: -0.088,inactive: 0.08,inactive: 0.072,–,inactive: -0.029,inactive: -0.008,inactive: -0.01,inactive: -0.082,inactive: -0.008
AHCTF1 isoform 2 (UniProt Q8WYP5),inactive: -0.094,inactive: 0.017,inactive: 0.01,inactive: 0.044,inactive: -0.01,inactive: 0.072,inactive: 0.128,inactive: -0.121,inactive: -0.01,inactive: -0.069,inactive: -0.093
ADPRH (UniProt P54922),inactive: 0.015,–,inactive: -0.178,active: -0.623,inactive: -0.034,inactive: -0.039,–,inactive: 0.086,inactive: -0.104,–,–
ADIPOR1 (UniProt Q96A54),inactive: -0.093,–,inactive: -0.024,inactive: -0.114,inactive: 0.013,–,inactive: -0.172,inactive: 0.067,inactive: 0.041,inactive: 0.266,inactive: 0.156
AMZ2 (UniProt Q86W34),inactive: 0.021,–,inactive: -0.049,–,inactive: 0.027,–,–,inactive: -0.104,inactive: -0.075,–,–
ADCY3 (UniProt O60266),inactive: -0.172,inactive: -0.118,–,inactive: -0.121,inactive: 0.04,inactive: 0.092,–,–,–,–,–
ALAD isoform 2 (UniProt P13716),inactive: 0,inactive: 0.058,inactive: -0.003,inactive: 0,inactive: -0.032,inactive: 0.011,inactive: -0.013,inactive: -0.02,inactive: -0.025,inactive: 0.059,inactive: -0.001
ADD2 isoform 9 (UniProt P35612),inactive: 0,–,active: -1.2,–,inactive: -0.052,–,–,inactive: -0.225,–,–,–
ADNP (UniProt Q9H2P0),inactive: -0.06,inactive: -0.069,inactive: 0.05,–,inactive: -0.002,inactive: 0.001,–,inactive: -0.237,–,–,–
ADCK5 (UniProt Q3MIX3),inactive: 0.034,–,–,inactive: -0.358,inactive: -0.119,–,inactive: -0.428,–,inactive: 0.259,inactive: 0.047,inactive: 0.104
AGAP3 isoform 4 (UniProt Q96P47),inactive: 0.034,inactive: -0.128,inactive: -0.001,–,inactive: 0.021,–,inactive: -0.063,inactive: -0.019,inactive: 0.127,inactive: -0.18,–
ADPRM (UniProt Q3LIE5),inactive: -0.135,–,–,–,inactive: -0.053,–,–,–,–,–,–
ADH1A (UniProt P07327),inactive: 0.109,–,–,–,inactive: 0.011,–,–,–,–,–,–
AGPAT4 (UniProt Q9NRZ5),inactive: -0.145,–,inactive: -0.259,–,inactive: 0.136,inactive: -0.102,inactive: -0.051,inactive: 0.066,–,inactive: 0.046,inactive: 0.067

# Source: the supplement of paper PMC10849652
